System: expanded OPCs
Protocol: Having established a consistent assay for measuring OL differentiation in vitro, the next step was to utilize this assay to assess the ability of a wide array of compounds to promote OL differentiation. Prior to library screening, we first established the maximum non-toxic dose of each compound in the library. […] Therefore, we added each compound in the NIH clinical collection (NCC) library to OPCs at 10, 1, and 0.1 µM concentrations. Three days later, we assessed viability of the treated cells by measuring AlamarBlue fluorescence, a measure of cell viability (see “Methods” section). […] Appropriately, we established three sets of screening concentrations for library compounds: non-toxic compounds were tested at 10 and 2 µM, slightly toxic compounds (only toxic at 10 µM) were tested at 2 and 0.4 µM, and very toxic compounds were tested at 0.4 and 0.08 µM.
OPCs were expanded in vitro by seeding into PDL-coated tissue culture flasks at 1000–2000 cells/cm^2 in differentiation media supplemented with 10 ng/ml PDGF-AA. Proliferating OPCs were fed every 2–3 days and supplemented with 2–3× concentration of PDGF as needed to prevent OPC differentiation. After 6–7 days of proliferation, OPCs were harvested by trypsinization, plated into PDL-coated 96-well Falcon plates and centrifuged at 200×g to facilitate cell attachment, survival, and even distribution of cells. Expanded OPCs were seeded in differentiation media at 10,000 cells/well and incubated for 2 h at 37 °C, 10 % CO2 prior to addition of compounds. The NCC library was diluted and added to cells at 10, 1, and 0.1 µM; each concentration was tested in quadruplicate. As a positive control for the induction of toxicity, 5 ng/ml tunicamycin was added to 8 wells in each plate. Three days later, a 1:10 dilution of alamarBlue® (AB) was added to each well and cells were incubated 4 h at 37 °C, 10 % CO2. AB fluorescence was measured using a PerkinElmer Victor II fluorescence microplate reader (PerkinElmer, Waltham, MA) with 560 nm excitation/590 nm emission filters. […]

In the case of `Cc1c(C(=O)NN2CCCCC2)nn(-c2ccc(Cl)cc2Cl)c1-c1ccc(I)cc1` [AM 251], the “0.1 µM (% DMSO)” value is reported as 72.9 % DMSO, the “1 µM (% DMSO)” value is reported as 108.4 % DMSO and the “10 µM (% DMSO)” value is reported as 13.5 % DMSO.
